# Data reported in PubChem BioAssay AID504327 (National Center for Advancing Translational Sciences (NCATS), 2011).
# Sequences of proteins named here, by UniProt entry; tags and fusion partners are left off.
# UniProt Q92830, whole entry, looked up: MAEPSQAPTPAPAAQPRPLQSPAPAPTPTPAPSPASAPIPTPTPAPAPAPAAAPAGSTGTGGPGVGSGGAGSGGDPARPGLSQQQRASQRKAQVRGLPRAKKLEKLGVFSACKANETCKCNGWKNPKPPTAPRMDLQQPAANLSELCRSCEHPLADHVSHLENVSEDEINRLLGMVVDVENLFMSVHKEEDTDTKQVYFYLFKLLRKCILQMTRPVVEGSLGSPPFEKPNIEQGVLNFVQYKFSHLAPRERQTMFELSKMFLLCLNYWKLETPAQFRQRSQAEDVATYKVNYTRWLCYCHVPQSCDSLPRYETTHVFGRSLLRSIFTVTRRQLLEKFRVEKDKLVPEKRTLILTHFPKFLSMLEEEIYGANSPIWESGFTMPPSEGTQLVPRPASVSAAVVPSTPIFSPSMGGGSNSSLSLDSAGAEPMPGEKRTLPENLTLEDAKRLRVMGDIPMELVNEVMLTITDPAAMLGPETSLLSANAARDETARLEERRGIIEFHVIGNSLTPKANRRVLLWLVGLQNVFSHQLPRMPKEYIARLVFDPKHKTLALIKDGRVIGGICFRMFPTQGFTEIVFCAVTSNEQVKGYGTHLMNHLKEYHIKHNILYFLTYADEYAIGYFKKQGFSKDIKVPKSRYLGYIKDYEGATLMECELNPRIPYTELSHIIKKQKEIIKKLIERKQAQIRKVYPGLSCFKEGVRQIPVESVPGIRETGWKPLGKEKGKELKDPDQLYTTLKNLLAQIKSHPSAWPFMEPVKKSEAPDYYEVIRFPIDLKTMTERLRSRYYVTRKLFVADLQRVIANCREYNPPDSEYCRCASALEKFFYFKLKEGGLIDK
# “And” between values parts separate entries of the source, which are not always exact repeats. Identical values can stand only once. In all, about 390,000 compounds went through this assay and about 820 (0.21%) were called active. The shares of active, inactive and inconclusive entries below differ from those in the screen. Calls come from the whole dose curve; as a rule, active = well fitted inhibition curve with a large enough effect; inconclusive = small, poorly fitted or top-dose-only effect, or another doubt; inactive = no such curve, though single readings can be large or run the other way. A potency beside an inconclusive call is a rough fit, not a confirmed value.
# Biological target: Histone acetyltransferase KAT2A (Homo sapiens) (UniProt Q92830)
# Assay: qHTS Assay for Inhibitors of GCN5L2
# Conditions: GCN5L2 HAT assay, ThioGlo1 CoA-SH fluorescence; activity change, negative = inhibition: at 58.9 µM (top of the series) unless noted
# In short: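 Compounds, pin-transferred from DMSO stocks, meet 20nM GCN5L2 for 15 min before the reaction begins with H3(1-25) peptide (75uM) and acetyl-CoA (70uM). Thiol-reactive ThioGlo1 reports CoA release over 20 min at room temperature.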
# % is set by controls: 0 for no effect and ±100 for the full control effect; potency is the fitted concentration of half-maximal effect.
Compound,Potency,"activity change, negative = inhibition"
COc1cccc(CN(Cc2ccco2)C(c2ccc(F)cc2)c2nnnn2C(C)(C)C)c1 (centres undefined),"inconclusive: 15.8 µM [inhibitor, partial curve]",
CCCn1ncc(C(=O)N(C)C2CCCN(Cc3ccccc3F)C2)c1C (centres undefined),"inconclusive: 0.562 µM [inhibitor, full curve, poor fit]",
COc1ccccc1N1CCN(C(=O)C2CCN(S(=O)(=O)c3ccc(C)cc3)CC2)CC1,"inconclusive: 35.5 µM [inhibitor, single point]",
COc1ccc(-c2oc(=O)c3cc(OC)c(OC)cc3c2/C=C/c2cccc([N+](=O)[O-])c2)cc1,,inactive: 2.8%
NC(N)=NCc1cccc(I)c1,"inconclusive: 39.8 µM [inhibitor, single point]",
c1ccc(Cc2ccc(OCCn3ccnc3)cc2)cc1,"inconclusive: 7.08 µM [inhibitor, single point]",
O=C(c1ccco1)N(CCC(c1ccccc1)c1ccco1)Cc1ccco1 (centres undefined),"inconclusive: 39.8 µM [inhibitor, single point]",
CCN(CC)CCN(Cc1cc2cc(C)c(C)cc2[nH]c1=O)C(=S)NCc1ccco1,,inactive: -1.83%
O=C(Cc1ccccc1[N+](=O)[O-])N1CCN(S(=O)(=O)c2ccccc2)CC1,,inactive: -13.1%
O=C(CC1N=C2c3ccccc3N=C(SCc3cccc(Cl)c3)N2C1=O)NC1CCCCC1 (centres undefined),,inactive: -6.63%
CCn1c(C)[n+](CC)c2ccc(S(=O)(=O)NC)cc21,,inactive: 3.66%
O[C@@H]1CCN2Cc3ccccc3N=C12,"inconclusive: 5.62 µM [inhibitor, full curve, poor fit]",
Cc1ccc(C2=[N+]([O-])C3(CCCCC/C3=N\NC(N)=S)N(O)C2(C)C)o1 (centres undefined),,inactive: -11.2% [at 0.501 µM]
O=C(CC(c1ccccc1)c1ccccc1)NCC1CCCO1 (centres undefined),"inconclusive: 39.8 µM [inhibitor, single point]",
O=c1cccc2n1Cc1cc3ccccc3nc1-2,"inconclusive: 35.5 µM [inhibitor, single point]",
O=S(=O)(c1cccs1)N1CN(Cc2ccco2)c2nc3ccccc3nc21,"inconclusive: 14.1 µM [inhibitor, single point]",
Cc1ccc(OCCCSc2n[nH]c(N)n2)cc1,"inconclusive: 25.1 µM [inhibitor, single point]",
Cn1c(C=O)c(-c2ccc3cc[nH]c3c2)c2ccccc21,"inconclusive: 14.1 µM [inhibitor, partial curve]",
COc1cccc(N2CCN(C(=O)c3cccc(N4C(=O)NC5CC4(C)Oc4c(OC)cccc45)c3)CC2)c1 (centres undefined),,inactive: 1.68%
Cc1ccc(C2CC(=O)N(Cc3ccccc3)c3c2c(C)nn3-c2nc(C)cc(C)n2)cc1 (centres undefined),,inactive: 1.85%
CC(=O)N1CCN(C(=O)c2cc(-c3ccc(C)o3)nc3ccccc23)CC1,active: 20 µM,
CCOc1ccccc1NC(=O)C1CCCN(c2c(CC)c(C)nc3ncnn23)C1 (centres undefined),,inactive: -6.31%
Cc1ccc(CONC(=O)c2cccc([N+](=O)[O-])c2)cc1,,inactive: -1.35%

Compound,Potency,"activity change, negative = inhibition"
Cc1nc2sc(C(=O)Nc3ccc(F)cc3)c(N)c2c(-c2ccc(Br)cc2)c1C(=O)Nc1ccc(Cl)cc1,"inconclusive: 31.6 µM [inhibitor, single point]",
Nc1ccc(-c2nnc(-c3ccc(N)cc3)o2)cc1,"inconclusive: 6.31 µM [inhibitor, full curve, poor fit]",
Nc1cccc(S(=O)(=O)Nc2ccccc2)c1,"inconclusive: 3.55 µM [inhibitor, single point]",
CCCCCNCc1ccc(OCc2ccc(Cl)nc2)c(OC)c1,,inactive: -3.89%
CC1CCN(C(=O)CN(c2cccc(F)c2)S(C)(=O)=O)CC1,"inconclusive: 35.5 µM [inhibitor, partial curve]",
N#CC1=C2SCN(c3ccccc3)CN2C(=O)CC1c1cccs1 (centres undefined),"inconclusive: 28.2 µM [inhibitor, single point]",
O=C(Nc1ccc(F)cc1F)NC1CCN(S(=O)(=O)c2ccc(F)cc2)CC1,"inconclusive: 0.562 µM [inhibitor, single point]",
O=C(NCCCn1ccnc1)c1nc(Cn2cc(Br)cn2)no1,"inconclusive: 1 µM [inhibitor, full curve, poor fit]",
COc1ccc(CNCCC(c2ccc(OC)cc2)c2ccccc2OC)cc1 (centres undefined),"inconclusive: 0.631 µM [inhibitor, single point]",
COc1ccc(N(CC(=O)NCc2ccccc2OC)S(=O)(=O)c2ccc(C)cc2)cc1Cl,"inconclusive: 7.94 µM [inhibitor, full curve, poor fit]",
CSc1nc2sc3c(c2c(=O)n1C)CCC3,"inconclusive: 7.08 µM [inhibitor, single point]",
COc1ccc(OCC(O)CNC(=O)c2sccc2Cl)cc1 (centres undefined),"inconclusive: 0.1 µM [inhibitor, full curve, poor fit]",
O=C(N/N=C/c1cc([N+](=O)[O-])ccc1O)c1ccncc1,,inactive: -12.7%
COc1cc(-c2ccc(N=Nc3ccc4c(S(=O)(=O)O)cc(S(=O)(=O)O)c(N)c4c3O)c(OC)c2)ccc1N=Nc1ccc2c(S(=O)(=O)O)cc(S(=O)(=O)O)c(N)c2c1O,active: 8.91 µM and active: 3.98 µM,
CCCc1nnc(NC(=O)Cn2cnc3ccccc3c2=O)s1,"inconclusive: 39.8 µM [inhibitor, single point]",
Cc1ccc(Cl)cc1NCc1nnc2n1CCCCC2,,inactive: -10.2%
CC(=O)Nc1cccc(C(=O)OCN2C(=O)c3ccccc3C2=O)c1,"inconclusive: 39.8 µM [inhibitor, single point]",
COc1c(N2CCN(C(=S)NCc3ccccc3)C(C)C2)c(F)cc2c(=O)c(C(=O)O)cn(C3CC3)c12 (centres undefined),"inconclusive: 20 µM [inhibitor, single point]",
COc1ccc(-c2nc3cnc(Nc4cccc(OC)c4)nc3n(CCC#N)c2=O)cc1,"inconclusive: 22.4 µM [inhibitor, single point]",
COC(=O)CN1C(CN2CCOCC2)=Nc2ccc(Br)cc2C1c1ccccc1 (centres undefined),"inconclusive: 2.24 µM [inhibitor, partial curve, poor fit]",
COC(=O)c1ccc(NC(=O)Cn2nc(C(=O)Nc3ccc(C)cc3)ccc2=O)cc1,inactive,
CCCCC(=O)N(Cc1ccc(F)cc1)C1CCS(=O)(=O)C1 (centres undefined),"inconclusive: 7.08 µM [inhibitor, single point]",
Cc1ccc(N=Cc2cc(Cc3ccccc3Cl)cc([N+](=O)[O-])c2O)c(O)c1,"inconclusive: 25.1 µM [inhibitor, single point]",

Compound,Potency,"activity change, negative = inhibition"
CN(CC(=O)Nc1ccc(F)c(F)c1F)C1CCCCC1,"inconclusive: 39.8 µM [inhibitor, single point]",
O=C(CCOc1ccccc1)Nc1ccnn1C1CCN(Cc2ccc(F)cc2)CC1,,inactive: 2.91%
COc1ccc(NC(=O)C2=CC(c3ccc(OC)c(OC)c3)=NS(=O)(=O)N2C)cc1,"inconclusive: 8.91 µM [inhibitor, full curve, poor fit]",
COc1ccc(C(=O)C2CCCN(C/C=C/c3ccccc3OC)C2)c(OC)c1 (centres undefined),"inconclusive: 35.5 µM [inhibitor, single point]",
CCOC(=O)c1ccc(NC(=O)c2c(NCc3sccc3C)sc3c2CCCCC3)cc1,,inactive: -26.7%
CC(C)(C)C1N=C(c2ccc3ccccc3c2)OC1=O (centres undefined),"inconclusive: 31.6 µM [inhibitor, single point]",
CC(=O)N1CCCC(C(=O)c2ccc3c4c(cccc24)CC3)C1 (centres undefined),"inconclusive: 8.91 µM [inhibitor, partial curve]",
NC(=O)Cn1c(=O)n(Cc2ccco2)c(=O)c2c3c(sc21)CCCCC3,,inactive: -27.6%
CN1CCc2c(sc(NC(=O)c3cc(Cl)sc3Cl)c2C(N)=O)C1,"inconclusive: 8.91 µM [inhibitor, single point]",
CCOC(=O)NNc1ccccc1,"inconclusive: 0.158 µM [inhibitor, partial curve, poor fit]",
O=S(=O)(Nc1ccc(S(=O)(=O)N2CCCC2)cc1)c1ccc(F)cc1F,,inactive: -5.47%
COc1ccc(OCC(=O)Nc2ccc(O)c(-c3nc4ccccc4s3)c2)cc1,"inconclusive: 31.6 µM [inhibitor, single point]",
CCOC(=O)c1c(C)oc2c1c(C(c1cccnc1)N1CCN(C)CC1)c(O)c1ccccc12 (centres undefined),,inactive: -7.21%
CCCCCCSc1ccc(-c2nc3cnccn3c2NCCCC)cc1,"inconclusive: 22.4 µM [inhibitor, single point]",
COc1ccccc1-n1c(=O)c2c3c(sc2n2c(=S)[nH]nc12)CCC3,,inactive: -1.48%
Cc1cc(-c2nn(C)c(=O)c3ccccc23)cc(C)c1O,"inconclusive: 22.4 µM [inhibitor, partial curve, poor fit]",
COc1ccc([C@H]2CC(=O)C=C(c3cccc(CO)c3)C2)cc1,"inconclusive: 28.2 µM [inhibitor, single point]",
COc1ccc(C(=O)c2c[nH]c(C(=O)NCc3cccs3)c2)cc1,"inconclusive: 31.6 µM [inhibitor, single point]",
Cc1ccc(S(=O)(=O)N(C)C[C@@H]2Oc3ccc(NC(=O)CCC(F)(F)F)cc3CC(=O)N([C@@H](C)CO)C[C@@H]2C)cc1,,inactive: -6.71%
Cn1c(=O)n(C)c2cc(N3CCCCC3)c(NC(=O)c3ccc(Cl)cc3)cc21,,inactive: 3.52%
NS(=O)(=O)c1ccc(NC(=S)NCc2ccc(Cl)cc2)cc1,,inactive: -19.5%
O=C1c2ccccc2-c2nc3ccccc3cc21,,inactive: -20.1%
Cc1ccc2[nH]c(=O)c(C(c3nnnn3C3CCCC3)N(Cc3cccnc3)Cc3ccco3)cc2c1 (centres undefined),"inconclusive: 6.31 µM [inhibitor, single point]",
